According to PMC13039736:
No constants are given. Whether binding was seen depends on the method and setting. In cells and extracts the contact can be indirect. These calls come from enrichment with a bait or labelling near it, and not all partners need be listed.

Protein sequences, listed by entry. Tags and fused reporters are not part of them.
UniProt Q9UNI6: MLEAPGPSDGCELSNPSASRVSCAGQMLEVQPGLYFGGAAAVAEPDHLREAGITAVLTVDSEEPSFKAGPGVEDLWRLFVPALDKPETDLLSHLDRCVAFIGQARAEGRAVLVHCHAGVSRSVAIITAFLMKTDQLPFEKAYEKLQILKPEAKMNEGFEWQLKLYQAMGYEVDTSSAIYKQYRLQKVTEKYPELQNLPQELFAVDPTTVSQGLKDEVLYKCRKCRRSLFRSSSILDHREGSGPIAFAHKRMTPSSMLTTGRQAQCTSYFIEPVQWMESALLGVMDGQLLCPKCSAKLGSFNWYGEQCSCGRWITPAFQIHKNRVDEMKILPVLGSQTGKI

Legend:
[1] = biological target: LAP-DUSP12-WT (full length) (UniProt Q9UNI6); test: affinity purification with mass spectrometry; LAP-DUSP12 HeLa stable line induced with 0.1 ug/mL doxycycline, arrested with 100 nM Taxol 18 h; tandem affinity purification (anti-GFP antibody beads, then S-protein Agarose); eluates by LC-MS/MS
[2] = biological target: BioID2-DUSP12 (UniProt Q9UNI6); test: proximity labelling; BioID2-DUSP12 HeLa stable line, 0.1 ug/mL Dox, 100 nM Taxol and 50 uM biotin for 16 h; biotinylated proteins purified on streptavidin Dynabeads; LC-MS/MS

binding [1]: binds
binding [2]: binds
B1: zinc finger protein 622 (ZNF622), endogenous (protein, UniProt Q969S3 1-477)
chain: MATYTCITCRVAFRDADMQRAHYKTDWHRYNLRRKVASMAPVTAEGFQERVRAQRAVAEEESKGSATYCTVCSKKFASFNAYENHLKSRRHVELEKKAVQAVNRKVEMMNEKNLEKGLGVDSVDKDAMNAAIQQAIKAQPSMSPKKAPPAPAKEARNVVAVGTGGRGTHDRDPSEKPPRLQWFEQQAKKLAKQQEEDSEEEEEDLDGDDWEDIDSDEELECEDTEAMDDVVEQDAEEEEAEEGPPLGAIPITDCLFCSHHSSSLMKNVAHMTKDHSFFIPDIEYLSDIKGLIKYLGEKVGVGKICLWCNEKGKSFYSTEAVQAHMNDKSHCKLFTDGDAALEFADFYDFRSSYPDHKEGEDPNKAEELPSEKNLEYDDETMELILPSGARVGHRSLMRYYKQRFGLSRAVAVAKNRKAVGRVLQQYRALGWTGSTGAALMRERDMQYVQRMKSKWMLKTGMKNNATKQMHFRVQVRF
